Results on seven sequences are retold here after patent US8252764B2, “Compositions and methods of use of targeting peptides against placenta and adipose tissues” (priority 2000, dated 2012).

The test system of the first series is SK-RC-49/APA cells. Nature of the series: Cell panning of CX3CX3CX3C phage library on SK-RC-49/APA cells (insert frequency). The class given is cell-based. Conditions: share of phage inserts, round 3.
For the sequence CYNLCIRECESICGADGACWTWCADGCSRSC, the “Round 3 (%)” value is given as 100%.

The series is the same for the next values; noted with them: share of randomly selected phage inserts, round 2.
For CSGLCTVQCLEGC, the “Round 2 (%)” value was 5/— %.

For the sequence CGTGCAVECEVVC, the “Round 2 (%)” value was 5/— %. On the same count and under the same terms, in the case of CPKVCPRECESNC it was 5/— %. On the same count and under the same terms, the same measure for CAVACWADCQLGC: 5/— %; for CYNLCIRECESICGADGACWTWCADGCSRSC: 50%. On the same count and under the same terms, in the case of CLGQCASICVNDC it was 5/— %; in that of CSMMCLEGCDDWC, 5/— %.
